The data set has as its system Hsmar1 transposase (wild type). As to the kind of experiment: EMSA. Conditions: 5 mM Ca2+; Fusion: 20 mM HEPES pH 7.5, 250 mM KCl, 2 mM MgCl2, 0.01% Triton X-100, 0.1 mg/ml BSA, 10% glycerol, 37 C 20 min; native transposase: 20 mM HEPES pH 7.5, 100 mM NaCl; recombinant protein. On the technique in general: In EMSA bound probe runs differently from free probe, usually more slowly.

The exact form of at least one protein or probe is not confirmed. At least one verdict was read from the data and is not stated in words by the source.

For the sequence “ACTAGTGGATCCCCCGGGCTGCAGGAATTCTATTAGGTTGGTGCAAAAGTAATTGCGGTTTTGGATCCCTGT (double strand) [transposon-end oligoduplex]”, the binding result was “binds”.

The values above are taken from PMC6735945.
